According to patent US20160185832A1:
Results are given in words; binding and its absence hold for the method and conditions named. Some results given as binding are weak or reduced against the parent protein; the word gives no strength. Tags and fused reporters may be left off the sequences shown. Blank lines part the entries; values can stand above or below the binder they belong to.

Protein sequences, listed by entry. Tags and fused reporters are not part of them. Lines headed by an entry give the natural chain unless they say otherwise; changes in a name come on top.
UniProt P81947: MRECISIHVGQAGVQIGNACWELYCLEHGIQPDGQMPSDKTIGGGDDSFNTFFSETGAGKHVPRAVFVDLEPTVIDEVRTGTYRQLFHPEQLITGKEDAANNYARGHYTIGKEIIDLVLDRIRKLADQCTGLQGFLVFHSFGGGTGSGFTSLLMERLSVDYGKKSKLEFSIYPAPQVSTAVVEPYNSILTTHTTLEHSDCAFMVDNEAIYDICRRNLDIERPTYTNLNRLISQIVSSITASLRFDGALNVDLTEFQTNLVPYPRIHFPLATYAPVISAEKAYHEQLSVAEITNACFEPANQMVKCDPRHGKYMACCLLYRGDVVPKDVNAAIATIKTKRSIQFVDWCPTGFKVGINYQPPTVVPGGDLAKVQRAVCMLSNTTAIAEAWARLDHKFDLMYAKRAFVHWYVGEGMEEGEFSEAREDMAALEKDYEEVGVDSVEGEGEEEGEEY
UniProt Q6B856: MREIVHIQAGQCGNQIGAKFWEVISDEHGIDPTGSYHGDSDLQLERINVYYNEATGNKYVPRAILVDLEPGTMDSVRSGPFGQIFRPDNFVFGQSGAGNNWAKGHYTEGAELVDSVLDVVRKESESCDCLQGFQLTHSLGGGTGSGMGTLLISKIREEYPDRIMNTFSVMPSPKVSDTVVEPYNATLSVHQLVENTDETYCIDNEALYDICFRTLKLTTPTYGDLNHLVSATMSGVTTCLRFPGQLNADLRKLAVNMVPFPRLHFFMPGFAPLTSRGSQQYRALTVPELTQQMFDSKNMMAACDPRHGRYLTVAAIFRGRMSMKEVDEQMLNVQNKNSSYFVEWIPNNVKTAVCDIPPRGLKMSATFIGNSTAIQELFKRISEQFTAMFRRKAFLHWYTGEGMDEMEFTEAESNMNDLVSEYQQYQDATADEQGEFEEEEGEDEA

What was measured:
[1] = molecular target: T1, pure, pre-polymerized, taxol-stabilized microtubules of bovine tubulin (Cytoskeleton) (bovine) (UniProt P81947+Q6B856); experiment: in vitro microtubule co-sedimentation of in vitro translated GFP fusions, western blot
[2] = molecular target: T1, pure, pre-polymerized, taxol-stabilized microtubules of bovine tubulin (Cytoskeleton) (bovine); experiment: microtubule co-sedimentation with purified protein, Coomassie gel (FIG. 4E)
[3] = molecular target: T1, pure, pre-polymerized, taxol-stabilized microtubules of bovine tubulin (Cytoskeleton) (bovine); experiment: microtubule co-sedimentation with purified protein and increasing microtubules

binding [1]: binds
B1: GFP fusion of CEP290 aa 580-1966 (protein, not shown: large carriers)
chain: TENISQGDRISERKLDLLSLKNMSEAQSKNEFLSRELIEKERDLERSRTVIAKFQNKLKELVEENKQLEEGMKEILQAIKEMQKDPDVKGGETSLIIPSLERLVNAIESKNAEGIFDASLHLKAQVDQLTGRNEELRQELRESRKEAINYSQQLAKANLKIDHLEKETSLLRQSEGSNVVFKGIDLPDGIAPSSASIINSQNEYLIHLLQELENKEKKLKNLEDSLEDYNRKFAVIRHQQSLLYKEYLSEKETWKTESKTIKEEKRKLEDQVQQDAIKVKEYNNLLNALQMDSDEMKKILAENSRKITVLQVNEKSLIRQYTTLVELERQLRKENEKQKNELLSMEAEVCEKIGCLQRFKEMAIFKIAALQKVVDNSVSLSELELANKQYNELTAKYRDILQKDNMLVQRTSNLEHLECENISLKEQVESINKELEITKEKLHTIEQAWEQETKLGNESSMDKAKKSITNSDIVSISKKITMLEMKELNERQRAEHCQKMYEHLRTSLKQMEERNFELETKFAELTKINLDAQKVEQMLRDELADSVSKAVSDADRQRILELEKNEMELKVEVSKLREISDIARRQVEILNAQQQSRDKEVESLRMQLLDYQAQSDEKSLIAKLHQHNVSLQLSEATALGKLESITSKLQKMEAYNLRLEQKLDEKEQALYYARLEGRNRAKHLRQTIQSLRRQFSGALPLAQQEKFSKTMIQLQNDKLKIMQEMKNSQQEHRNMENKTLEMELKLKGLEELISTLKDTKGAQKVINWHMKIEELRLQELKLNRELVKDKEEIKYLNNIISEYERTISSLEEEIVQQNKFHEERQMAWDQREVDLERQLDIFDRQQNEILNAAQKFEEATGSIPDPSLPLPNQLEIALRKIKENIRIILETRATCKSLEEKLKEKESALRLAEQNILSRDKVINELRLRLPATAEREKLIAELGRKEMEPKSHHTLKIAHQTIANMQARLNQKEEVLKKYQRLLEKAREEQREIVKKHEEDLHILHHRLELQADSSLNKFKQTAWDLMKQSPTPVPTNKHFIRLAEMEQTVAEQDDSLSSLLVKLKKVSQDLERQREITELKVKEFENIKLQLQENHEDEVKKVKAEVEDLKYLLDQSQKESQCLKSELQAQKEANSRAPTTTMRNLVERLKSQLALKEKQQKALSRALLELRAEMTAAAEERIISATSQKEAHLNVQQIVDRHTRELKTQVEDLNENLLKLKEALKTSKNRENSLTDNLNDLNNELQKKQKAYNKILREKEEIDQENDELKRQIKRLTSGLQGKPLTDNKQSLIEELQRKVKKLENQLEGKVEEVDLKPMKEKNAKEELIRWEEGKKWQAKIEGIRNKLKEKEGEVFTLTKQLNTLKDLFAKADKEKLTLQRKLKT

binding [2]: binds | binding [3]: binds
B2: 6×His tagged CEP290 truncation M (aa 1695-1966), recombinantly expressed and purified (protein, not shown: small tags and cut ends)
chain: DQSQKESQCLKSELQAQKEANSRAPTTTMRNLVERLKSQLALKEKQQKALSRALLELRAEMTAAAEERIISATSQKEAHLNVQQIVDRHTRELKTQVEDLNENLLKLKEALKTSKNRENSLTDNLNDLNNELQKKQKAYNKILREKEEIDQENDELKRQIKRLTSGLQGKPLTDNKQSLIEELQRKVKKLENQLEGKVEEVDLKPMKEKNAKEELIRWEEGKKWQAKIEGIRNKLKEKEGEVFTLTKQLNTLKDLFAKADKEKLTLQRKLKT

binding [1]: binds
B3: GFP fusion of CEP290 aa 1695-1966 (region M) (protein, not shown: large carriers)
chain: B2 chain
